Data set [1] is described as follows: general procedure: Fmoc solid-phase peptide synthesis; Rink amide. To be noted: whole synthesis, scale 50 μmol.
A short description of data set [2]: general procedure: Fmoc solid-phase peptide synthesis; pre-loaded aminoethanthiol trityl resin. To be noted: whole synthesis, thioether ring.
The nature of data set [3]: general procedure: Fmoc solid-phase peptide synthesis; trityl. The conditions noted are these: whole synthesis, scale 50 μmol.
A short description of data set [4]: general procedure: Fmoc solid-phase peptide synthesis; polystyrene (PS or DEG cross-linked), ChemMatrix (CM) or TentaGel (TG) resin; trityl, Wang and Rink amide linkers. The conditions noted are these: for conjugation yield: conjugation step; for step yield: late stage modification step.
Data set [5] is described as follows: general procedure: Fmoc solid-phase peptide synthesis; WANG Tentagel. The conditions noted are these: whole synthesis, thioether ring.
Data set [6] can be described thus: general procedure: Fmoc solid-phase peptide synthesis; Fmoc-Cys(Trt) WANG Tentagel. To be noted: whole synthesis, scale 50 μmol, thioether ring.
Setting [7] is: overall from 3BP-4089, thioether ring.

In data set [1] (thioether ring), “Ac-Met-[Cys(3MeBn)-Pro-Pro-Thr-Glu-Phe-Cys]-Asp-His-Nmf-Arg-Asp-NH2” registered an isolated mass of 8.61 mg and an isolated yield of 9.8%.

In data set [1] (thioether ring), “DOTA-Ttds-Leu-[Cys(3MeBn)-Pro-Pro-Thr-Glu-Phe-Cys]-Asp-His-Phe-Arg-Asp-NH2” gave an isolated mass of 35.46 mg and an isolated yield of 29.8%. Take “Hex-Cys(tMeBn(H-PP))-Pro-Pro-Thr-Gln-Phe-Cys]-Asp-NH2”: the isolated yield in data set [1] (on resin loading, run 1) amounted to 25.3%; in data set [1] (on resin loading, run 2), 28.4%. The values for the isolated mass in data set [1] (run 1) and in data set [1] (run 2) were 15.3 mg and 17.2 mg, respectively.

In data set [1] (thioether ring, run 1), “Hex-[Cys(3MeBn)-Pro-Pro-Thr-Gln-Phe-Cys]-Asp-NH2” had an isolated mass of 16.0 mg and an isolated yield of 28.8%. In data set [1] (thioether ring, run 2), this substance gave an isolated mass of 16.9 mg and an isolated yield of 30.4%. For the substance “Hex-[Cys(3MeBn)-Pro-Pro-Thr-Glu-Phe-Cys]-Asp-His-Ppa-arg-Ttds-Lys(DOTA)-NH2”, in data set [1] (thioether ring), the isolated mass is listed as 17.18 mg and the isolated yield came to 14.5%. As to “Hex-[Cys(tMeBn(DOTA-AET))-Pro-Pro-Thr-Gln-Phe-AET]”, the isolated yield in data set [2] (overall, scale of the general procedure 50 μmol and 100 μmol) was 29.8% overall yield. For the same substance, in data set [2], the isolated mass is given as 21.25 mg. “Hex-[Cys(tMeBn(DOTA-AET))-Pro-Pro-Thr-Gln-Phe-Cysol] [3BP-3762]” came in with an isolated yield in data set [3] (overall, thioether ring) of 10.7% overall yield. Also, the isolated mass in data set [3] (thioether ring) stood at 7.8 mg. Take “Hex-[Cys(tMeBn(DTPA(tBu)4-O2Oc-AET))-Pro-Pro-Thr-Gln-Phe-Cys]-OH”: the conjugation yield in data set [4] worked out at 53% yield. Take “Hex-[Cys(tMeBn(H-AET))-Pro-Pro-Thr-Gln-Phe-Cys]-OH”: the isolated yield is reported as 32.8% in data set [3] (on resin loading, run 1) and 35.9% in data set [3] (on resin loading, run 2). For the same substance, the isolated mass in data set [3] (run 1) is reported as 17.8 mg; in data set [3] (run 2), 19.47 mg. Take “Hex-[Cys(tMeBn(H-O2Oc-AET))-Pro-Pro-Thr-Gln-Phe-Cys]-OH”: the conjugation yield in data set [4] came out at 29% yield. For the substance “Hex-[Cys(tMeBn(NODAGA-AET))-Pro-Pro-Thr-Gln-Phe-Cys]-OH”, the step yield in data set [4] (thioether ring) is on record as 80%. In data set [4] (thioether ring), “Hex-[Cys-(tMeBn(Bio-Ttds-Ttds-Ttds-Ttds-AET))-Pro-Pro-Thr-Gln-Phe-Cys]-OH” gave a conjugation yield of 18% yield. In data set [5] (scale 100 μmol), “Hex-[Cys-(tMeBn(DTPA2-AET))-Pro-Pro-Thr-Gln-Phe-Cys]-OH” showed an isolated mass of 5.8 mg and an isolated yield of 3.9%.

Take “Hex-[Cys-(tMeBn(DTPA2-Ttds-AET))-Pro-Pro-Thr-Gln-Phe-Cys]-OH”: in data set [5] (scale 100 μmol), the isolated mass is 6.87 mg and the isolated yield was 3.9%. Turning to “Hex-[Cys-(tMeBn(DTPA-AET))-Pro-Pro-Thr-Gln-Phe-Cys]-OH”, the conjugation yield in data set [4] (thioether ring) worked out at 22.9% yield. As to “Hex-[Cys-(tMeBn(DTPA-O2Oc-AET))-Pro-Pro-Thr-Gln-Phe-Cys]-OH”, the conjugation yield entry in data set [4] (setting [7]) is reported as “overall yield: 8%”. For the same substance, in data set [4] (thioether ring), the step yield was determined as 53% yield. On to “Hex-[Cys-(tMeBn(DTPABzl-Glutar-AET))-Pro-Pro-Thr-Gln-Phe-Cys]-OH”, for which, in data set [5] (scale 100 μmol), the isolated mass was 10.53 mg and the isolated yield was determined as 6.3%. On to “Hex-[Cys-(tMeBn(H-Asp-Asp-Cys-Ttds-AET))-Pro-Pro-Thr-Gln-Phe-Cys]-OH”, for which, in data set [5] (scale 100 μmol), the isolated mass worked out at 5.52 mg and the isolated yield came to 3.2%. Take “Hex-[Cys-(tMeBn(H-HYNIC-AET))-Pro-Pro-Thr-Gln-Phe-Cys]-OH”: in data set [4] (setting [7]), the conjugation yield entry is given as “overall yield: 3.4%”. The substance further returned a step yield in data set [4] (thioether ring) of 7% yield. In data set [5] (scale 100 μmol), “Hex-[Cys-(tMeBn(H-SAc-Ser-Ser-Ser-AET))-Pro-Pro-Thr-Gln-Phe-Cys]-OH” displayed an isolated mass of 5.25 mg and an isolated yield of 3.7%. “Hex-[Cys-(tMeBn(N4Ac-O2Oc-AET))-Pro-Pro-Thr-Gln-Phe-Cys]-OH”: the conjugation yield in data set [4] (thioether ring) came out at 55% yield.

With “Hex-[Cys-(tMeBn(NODAGA-AET))-Pro-Pro-Thr-Gln-Phe-Cys]-OH”, the conjugation yield in data set [4] (thioether ring) is 33.7% yield. In data set [5] (scale 50 μmol), “Hex-[Cys-(tMeBn(NODAGA-O2Oc-AET))-Pro-Pro-Thr-Gln-Phe-Cys]-OH” came in with an isolated mass of 4.31 mg and an isolated yield of 5.4%. Consider “Hex-[Cys-(tMeBn(NOTA-AET))-Pro-Pro-Thr-Gln-Phe-Cys]-OH”, for which, in data set [5] (scale 100 μmol), the isolated mass is 5.6 mg and the isolated yield was 4%. In data set [5] (scale 100 μmol), “Hex-[Cys-(tMeBn(NOTA-Ttds-AET))-Pro-Pro-Thr-Gln-Phe-Cys]-OH” gave an isolated mass of 10.1 mg and an isolated yield of 6%.

In data set [4] (thioether ring), “Hex-[Cys-(tMeBn(ReON4Ac-O2Oc-AET))-Pro-Pro-Thr-Gln-Phe-Cys]-OH” returned a step yield of 21% yield.

Regarding “N4Ac-Glu(AGLU)-Ttds-Nle-[Cys-(3MeBn)-Pro-Pro-Thr-Gln-Phe-Cys]-OH”, in data set [6], the isolated mass is recorded as 8.97 mg and the isolated yield is recorded as 10%. Consider “Pentyl-SO2-[Cys(tMeBn(DOTA-PP))-Pro-Pro-Thr-Gln-Phe-Cys]-Asp-NH2”, for which the isolated yield in data set [4] (whole synthesis, overall, scale 50 μmol, thioether ring) was found to be 8.7% overall yield. Further, in data set [4] (whole synthesis, scale 50 μmol, thioether ring), the isolated mass worked out at 7.09 mg. In data set [1], “Pentyl-SO2-[Cys(tMeBn(H-PP))-Pro-Pro-Thr-Gln-Phe-Cys]-Asp-NH2” showed an isolated mass of 9.15 mg and an isolated yield of 14.7%.
